Laboratory results published in article doi:10.1101/2024.01.16.575949.
Results are given in words; binding and its absence hold for the method and conditions named. For part of these data: Binding seen in cells or lysates may run through a third protein. Some binding calls cover weakened binding; strength is not graded here.

T1: Halo-FAM60A (full length) (UniProt Q9NP50)
T1 sequence: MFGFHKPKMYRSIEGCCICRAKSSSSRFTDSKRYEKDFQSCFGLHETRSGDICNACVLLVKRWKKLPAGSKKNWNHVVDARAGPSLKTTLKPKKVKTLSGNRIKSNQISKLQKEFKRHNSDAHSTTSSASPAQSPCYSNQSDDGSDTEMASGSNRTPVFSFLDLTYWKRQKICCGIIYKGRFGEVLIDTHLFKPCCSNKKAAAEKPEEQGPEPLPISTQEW

T2: SIN3A (endogenous) (human (endogenous in HEK293)) (UniProt Q96ST3)
T2 sequence: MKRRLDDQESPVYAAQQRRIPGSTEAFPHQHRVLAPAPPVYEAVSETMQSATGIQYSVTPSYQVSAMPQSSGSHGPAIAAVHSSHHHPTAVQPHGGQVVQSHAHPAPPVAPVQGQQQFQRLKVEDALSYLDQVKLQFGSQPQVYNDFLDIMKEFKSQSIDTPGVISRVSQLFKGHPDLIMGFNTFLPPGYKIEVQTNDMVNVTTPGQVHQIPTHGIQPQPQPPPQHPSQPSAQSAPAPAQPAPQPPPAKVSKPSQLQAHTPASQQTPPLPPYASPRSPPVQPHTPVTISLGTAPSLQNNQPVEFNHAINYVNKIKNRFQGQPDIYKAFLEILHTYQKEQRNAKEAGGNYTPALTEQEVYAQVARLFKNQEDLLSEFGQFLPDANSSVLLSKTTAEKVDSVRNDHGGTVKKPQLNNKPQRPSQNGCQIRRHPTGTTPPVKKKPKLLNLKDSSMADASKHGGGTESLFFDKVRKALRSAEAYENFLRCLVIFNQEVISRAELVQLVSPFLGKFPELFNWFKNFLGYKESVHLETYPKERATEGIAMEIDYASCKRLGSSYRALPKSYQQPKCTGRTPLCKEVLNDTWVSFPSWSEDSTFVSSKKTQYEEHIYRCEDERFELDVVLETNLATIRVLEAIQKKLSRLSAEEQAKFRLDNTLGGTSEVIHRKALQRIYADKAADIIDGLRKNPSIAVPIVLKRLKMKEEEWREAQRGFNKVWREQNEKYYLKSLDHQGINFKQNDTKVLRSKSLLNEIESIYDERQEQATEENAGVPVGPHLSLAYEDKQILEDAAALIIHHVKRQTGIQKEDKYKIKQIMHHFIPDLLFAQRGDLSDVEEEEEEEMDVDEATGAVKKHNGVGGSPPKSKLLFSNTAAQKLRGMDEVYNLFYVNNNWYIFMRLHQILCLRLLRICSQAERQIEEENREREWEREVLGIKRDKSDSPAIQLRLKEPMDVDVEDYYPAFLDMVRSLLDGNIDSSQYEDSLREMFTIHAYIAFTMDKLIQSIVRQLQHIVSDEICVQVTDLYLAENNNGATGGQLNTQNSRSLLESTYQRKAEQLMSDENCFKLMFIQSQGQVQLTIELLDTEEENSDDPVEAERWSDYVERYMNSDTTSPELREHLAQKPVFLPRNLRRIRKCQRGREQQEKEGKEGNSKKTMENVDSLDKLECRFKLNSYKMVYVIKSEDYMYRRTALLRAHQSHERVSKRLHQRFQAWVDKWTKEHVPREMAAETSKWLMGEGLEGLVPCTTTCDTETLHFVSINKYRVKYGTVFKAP

T3: Halo-SIN3A (UniProt Q96ST3)
T3 sequence: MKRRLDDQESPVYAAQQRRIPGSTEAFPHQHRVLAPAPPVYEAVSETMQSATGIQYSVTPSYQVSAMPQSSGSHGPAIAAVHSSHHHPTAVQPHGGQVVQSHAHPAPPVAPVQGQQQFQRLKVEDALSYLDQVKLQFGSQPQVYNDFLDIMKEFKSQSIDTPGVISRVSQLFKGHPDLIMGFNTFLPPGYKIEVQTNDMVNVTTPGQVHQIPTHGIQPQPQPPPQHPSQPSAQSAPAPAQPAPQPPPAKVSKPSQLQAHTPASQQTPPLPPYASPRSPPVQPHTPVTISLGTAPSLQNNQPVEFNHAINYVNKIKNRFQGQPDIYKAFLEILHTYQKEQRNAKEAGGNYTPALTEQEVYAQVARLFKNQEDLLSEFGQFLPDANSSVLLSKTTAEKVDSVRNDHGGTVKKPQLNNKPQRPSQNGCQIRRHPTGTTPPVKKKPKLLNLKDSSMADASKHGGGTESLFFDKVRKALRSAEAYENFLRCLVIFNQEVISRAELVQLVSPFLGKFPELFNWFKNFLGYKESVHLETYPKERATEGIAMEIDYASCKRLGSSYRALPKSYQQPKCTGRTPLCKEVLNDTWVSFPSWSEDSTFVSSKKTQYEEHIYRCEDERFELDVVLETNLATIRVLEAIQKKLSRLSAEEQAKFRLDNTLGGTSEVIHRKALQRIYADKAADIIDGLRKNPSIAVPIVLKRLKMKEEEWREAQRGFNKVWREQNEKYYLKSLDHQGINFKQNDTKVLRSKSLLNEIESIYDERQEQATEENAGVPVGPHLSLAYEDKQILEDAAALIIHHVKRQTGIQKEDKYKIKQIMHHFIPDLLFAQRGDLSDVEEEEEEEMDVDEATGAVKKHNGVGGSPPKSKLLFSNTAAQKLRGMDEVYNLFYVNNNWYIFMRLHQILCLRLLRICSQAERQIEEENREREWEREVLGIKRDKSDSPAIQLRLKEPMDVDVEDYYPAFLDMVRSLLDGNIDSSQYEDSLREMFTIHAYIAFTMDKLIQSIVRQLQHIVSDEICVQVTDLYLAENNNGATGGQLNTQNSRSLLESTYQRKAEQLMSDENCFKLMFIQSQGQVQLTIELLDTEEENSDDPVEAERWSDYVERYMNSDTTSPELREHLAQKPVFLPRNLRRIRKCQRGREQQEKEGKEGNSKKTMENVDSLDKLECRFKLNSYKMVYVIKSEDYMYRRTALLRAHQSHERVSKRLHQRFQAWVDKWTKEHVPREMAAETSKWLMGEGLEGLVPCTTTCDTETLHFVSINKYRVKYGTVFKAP


Legend:
[1] = biological target: T1, Halo-FAM60A (full length); assay: SEC
[2] = biological target: T1, Halo-FAM60A (full length); assay: cross-linking
[3] = biological target: T2, SIN3A (endogenous) (human (endogenous in HEK293)); assay: cross-linking
Halo-SIN3A = biological target: T3, Halo-SIN3A; assay: pull-down

binding [1] | binding [2] | binding [3] | binding (Halo-SIN3A) | Molecule
binds | binds | binds | binds | HDAC1 (endogenous) (from UniProt Q13547 1-482) (enzyme)
binds |  |  | binds | SUDS3 (endogenous) (protein, UniProt Q9H7L9 1-328) MSAAGLLAPAPAQAGAPPAPEYYPEEDEELESAEDDERSCRGRESDEDTEDASETDLAKHDEEDYVEMKEQMYQDKLASLKRQLQQLQEGTLQEYQKRMKKLDQQYKERIRNAELFLQLETEQVERNYIKEKKAAVKEFEDKKVELKENLIAELEEKKKMIENEKLTMELTGDSMEVKPIMTRKLRRRPNDPVPIPDKRRKPAPAQLNYLLTDEQIMEDLRTLNKLKSPKRPASPSSPEHLPATPAESPAQRFEARIEDGKLYYDKRWYHKSQAIYLESKDNQKLSCVISSVGANEIWVRKTSDSTKMRIYLGQLQRGLFVIRRRSAA

Continued, molecule first:

Molecule | binding [1] | binding [2] | binding [3] | binding (Halo-SIN3A)
MeCP2 (methyl-CpG-binding protein 2) (from UniProt P51608 1-486) |  | binds |  | 
SAP30 (endogenous) (protein, UniProt O75446 1-220) MNGFTPDEMSRGGDAAAAVAAVVAAAAAAASAGNGTGAGTGAEVPGAGAVSAAGPPGAAGPGPGQLCCLREDGERCGRAAGNASFSKRIQKSISQKKVKIELDKSARHLYICDYHKNLIQSVRNRRKRKGSDDDGGDSPVQDIDTPEVDLYQLQVNTLRRYKRHFKLPTRPGLNKAQLVEIVGCHFRSIPVNEKDTLTYFIYSVKNDKNKSDLKVDSGVH |  | binds | binds | 
